Drawing on PubChem BioAssay AID1347423 (Functional Genomics Laboratory (NCATS/FGL), 2020), this text covers z-score for 67 sequences.

Out of some 52,000 sequences screened, about 210 (0.4%) were called active.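 How the source made its calls: active means gene whose silencing raises cell survival under the drug, median off-target-corrected z-score across its silencing RNAs 2 or more; inactive means the rest.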 Some of the results follow.

The test in a line: Resistance to Poly (ADP-Ribose) Polymerase inhibitor: Gene Identification via Genome-wide siRNA Screen. The following applies: mouse BRCA2 R2336H ES cells, olaparib, CellTiter-Glo viability; hits give high values. The method in brief: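 Mouse BRCA2 R2336H ES cells were reverse-transfected with siRNA (20 nM final), treated at 48 h with 500 nM olaparib, and read by CellTiter-Glo after 72 h. Scores: MAD-based z per siRNA, median per gene, seed off-target correction.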
A general note: In ATP-based viability assays light output follows the ATP content of the culture.
Turning to GGUGAUUGGGAAUUGAAAATT against F3, the z-score was inactive: 0.0336.

For GGUAUGAUCCAGUAAUCCUTT against V1rc19, the z-score was inactive: 0.0462.

In the case of CCGAGUCUUGAACUAGGCATT against Six2, the z-score is inactive: 0.495.

For GGAACAAGAACAAGUUGAGTT against Spa17, the z-score was inactive: 0.0891.

In the case of GCCAAUCGGCAUCUUCCUUTT against Bcar1, the z-score was inactive: 0.843.

Take GGUGGUUAUUGGUGGCAGATT against Smc2l1: the z-score is inactive: -1.81.

As to “GGCCUAAAGUAAUUUUGGGTT against 4922501C03Rik”, the z-score was inactive: 0.173.

As to GGCUCUAUCACUGAGUCACTT against Dhrs10, the z-score is inactive: 2.72.

Consider GCUGACCUUCAUUCAUAUATT against V1rc33, for which the z-score was inactive: -1.96.

In the case of GGCUACAUGUGAUUUCUCUTT against Ttc7, the z-score was inactive: 0.203.

Turning to GCUUCACCUAGAGAUUAUUTT against AI836376, the z-score is inactive: -1.4.

For the sequence GGAGAUCAAAGAUAUCCUCTT against Rps16, the z-score was inactive: -3.13.

Turning to GCAGCUAAGAAGACCACUATT against Zfp185, the z-score was inactive: -0.21.

For GGUUGGUCUAGCAAUCUGUTT against Nit1, the z-score is inactive: 0.308.

For the sequence CGGUUUUUUAAUCUACCUATT against Ppp1r7, the z-score was inactive: -1.68.

Regarding GGCUUUAAGAUCACACAAATT against Snrpa, the z-score was inactive: -2.

On to GAUACAGACCUUGCUCUUCTT against Olfr714, for which the z-score was inactive: -0.369.

As to GCUACCUCUCGUAGUAAAATT against Sgk2, the z-score was inactive: 0.146.

For the sequence GGAGAGCUAAAUAAACAAATT against Kitl, the z-score was inactive: -0.587.

In the case of GGCUACUUCUGUACUAGGATT against Gclc, the z-score is inactive: 1.1.

Regarding GGAAGUUGAUAAAUGGUCUTT against Pde1a, the z-score is inactive: 1.15.

For the sequence GGCCAUAAAAUGGUAGUAUTT against Trim36, the z-score was inactive: -1.85.

With GGAAGAUGUGUUUCUGCCCTT against Gnefr, the z-score is inactive: -0.0367.

Turning to CCUUGAGUGAAAGAAUUGATT against BC020151, the z-score is inactive: 2.52.

As to GGCAAUAUUUCAGAACCUGTT against Tfb2m, the z-score was inactive: -0.691.

On to GCUAUACUAUUGAAGAAAGTT against Ttrap, for which the z-score was inactive: -0.694.

On to GCAGCAGCAAAUGUUCUAUTT against Olfr386, for which the z-score is inactive: 0.586.

Consider GGUCACUUCACCCUUUGUATT against Gng5, for which the z-score is inactive: -0.705.

For the sequence GGUCCUCUAAAGAAUAAAGTT against Ela3b, the z-score is active: 0.513.

GGACUUUUACCUCCUAAAATT against Me2: the z-score is inactive: 1.69.

Regarding “GGACCAUAUUCCAGACCAGTT against A730011L01Rik”, the z-score is inactive: -0.211.

As for GGAGUUAAUGAUUCAUUGCTT against Ripk3, the z-score was inactive: -0.814.

In the case of GGGUUCAAUGUGAUACACATT against Stard6, the z-score is inactive: -1.19.

Take GGAUCAUUUGAAAUUGCUGTT against Atp5s: the z-score was inactive: -1.11.

As for GCUAGUGACUUUGAGAUUGTT against Msh5, the z-score was inactive: 0.165.

With “GGUGCAGAUCCCAAAUCUGTT against 2610312B22Rik”, the z-score was inactive: 0.402.

For “GGUGAUCACAAAUAUGAUGTT against 3110003A22Rik”, the z-score was inactive: -0.731.

As for “GGACUAAGCAUUUGUAUCUTT against 3110082I17Rik”, the z-score was inactive: 1.43.

Consider “CGAAGGUCGUUAUUAUAAUTT against 5031439A09Rik”, for which the z-score was inactive: 2.27.

As for “GGAACAUAUUUAUUGGUGATT against 9330161F08Rik”, the z-score was inactive: 1.21.

Turning to GGUCUAAAAGGGCUCCUUATT against Cxcl10, the z-score was inactive: -1.32.

For the sequence GGUGUCUACGAAAUUCAAATT against Exosc9, the z-score is inactive: 0.189.

Take GGAAAUCAACAACUGUAGCTT against Tas1r2: the z-score is inactive: 0.446.

For CCGACUUGGUGGAGUAUAGTT against Ddost, the z-score was inactive: 0.302.

As for “GGGACACAAUUCUUUGAAATT against G630009D10Rik”, the z-score was inactive: 0.375.

For GCCACCUAGUACUCAACUATT against Baz2a, the z-score is inactive: -2.7.

For the sequence GGAUGUUUGUGGAUGUGGUTT against Tbx21, the z-score is inactive: -0.48.

Regarding GGUGGCCAAGAAUGUGAAUTT against BC024561, the z-score is inactive: 0.0114.

Consider GGCUUUUUGCUUCACUACUTT against Slco4c1, for which the z-score was inactive: 1.12.

Consider CCUUCUUUUGAGAACAGAATT against Nsd1, for which the z-score is inactive: -0.313.

Regarding GGUCUUACUGUUUGUGAUATT against Olfr1295, the z-score was inactive: 0.335.

In the case of GGCACUCUUGUUGAAAUUCTT against H6pd, the z-score was inactive: 1.35.

Turning to GGAACAUGAAGCCUUUUACTT against Asb16, the z-score is active: 3.12.

For the sequence GGAUAAUUCACUGUCGCUUTT against Cyp2c37, the z-score is inactive: 0.605.

In the case of GGGAAACCUGAACUAACAGTT against Pcdha5, the z-score was inactive: -0.0304.

For GCUUAAUGCCUUGAAACGATT against Tsg101, the z-score was inactive: -0.442.

Consider “GGAGAAACAGAAGUAUUGATT against 5730427N09Rik”, for which the z-score was inactive: -1.18.

CCAAAAAUACUUCUCCUUCTT against Gata6: the z-score was inactive: 0.325.

Turning to GUGAUGGUUGGGCUUCUCATT against Olfr1450, the z-score is inactive: -0.738.

GGCUAUUUAUAGUUGUCGGTT against Unc119: the z-score was inactive: -0.441.

On to GGUCUGUUCCGUAUGAAGCTT against Ube2s, for which the z-score was inactive: -0.597.

On to GGAGGAAUACCAGGAAUACTT against Sncb, for which the z-score was inactive: -1.99.

With CGAUAACAUGUUGAAAAACTT against Kctd10, the z-score was inactive: 1.44.

On to “GGAAGUGGCCACAUGUGAATT against E230025N22”, for which the z-score is inactive: 0.86.

“CGAUGAAGAUUGUAACUAGTT against 4930555G01Rik”: the z-score is inactive: 1.17.

As to GGUGUAGAUAAGAACUAUGTT against Odf1, the z-score is inactive: 1.91.

As for GCUGGUUGUGUUAAAAUGCTT against Cyp4a14, the z-score is inactive: 1.35.
